Our source for the binding values is PMC5438719.

By UniProt entry, the sequences of proteins in these tests, tags left out.
UniProt Q15022: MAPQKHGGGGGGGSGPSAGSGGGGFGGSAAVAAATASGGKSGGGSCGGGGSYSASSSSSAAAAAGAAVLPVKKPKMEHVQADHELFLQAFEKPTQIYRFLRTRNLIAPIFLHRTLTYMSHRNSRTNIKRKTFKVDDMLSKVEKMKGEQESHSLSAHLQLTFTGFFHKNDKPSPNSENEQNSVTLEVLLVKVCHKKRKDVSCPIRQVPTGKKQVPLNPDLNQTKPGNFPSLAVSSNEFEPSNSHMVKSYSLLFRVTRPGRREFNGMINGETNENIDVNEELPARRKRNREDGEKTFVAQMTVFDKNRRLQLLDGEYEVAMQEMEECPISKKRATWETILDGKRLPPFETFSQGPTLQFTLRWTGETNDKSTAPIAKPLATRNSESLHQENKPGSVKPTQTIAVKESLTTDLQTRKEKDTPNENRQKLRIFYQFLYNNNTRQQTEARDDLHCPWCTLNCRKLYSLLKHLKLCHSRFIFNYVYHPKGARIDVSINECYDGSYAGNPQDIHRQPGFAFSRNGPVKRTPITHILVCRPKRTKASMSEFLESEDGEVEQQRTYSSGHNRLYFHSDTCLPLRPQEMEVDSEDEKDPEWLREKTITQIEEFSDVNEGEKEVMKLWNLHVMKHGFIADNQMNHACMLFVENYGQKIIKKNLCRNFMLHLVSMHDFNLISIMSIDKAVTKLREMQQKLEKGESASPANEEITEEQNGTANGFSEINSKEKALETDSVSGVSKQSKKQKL

Results are given in words; binding and its absence hold for the method and conditions named. Binding seen in cells or lysates may run through a third protein. Some binding calls cover weakened binding; strength is not graded here. For some assays here: Where a sequence is shown, tags or fusion partners need not be part of it.

Assay [1] has as its target T1, brain-derived neurotrophic factor (human (endogenous in HCT-116)) (UniProt P23560).
T1 sequence: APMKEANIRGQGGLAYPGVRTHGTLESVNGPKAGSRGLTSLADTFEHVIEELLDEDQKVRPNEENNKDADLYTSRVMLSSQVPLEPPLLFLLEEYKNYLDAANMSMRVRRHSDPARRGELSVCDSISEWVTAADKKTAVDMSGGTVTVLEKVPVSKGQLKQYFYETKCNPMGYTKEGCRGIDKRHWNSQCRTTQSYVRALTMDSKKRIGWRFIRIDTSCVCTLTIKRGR
Put plainly: co-IP; Co-IP assay to determine the interaction between SUZ12 and BDNF; cells and precipitated protein not stated.

The target in assay [2] is T2, uridine diphosphate-glucuronosyltransferase 2B7 (human (endogenous in HCT-116)) (UniProt P16662).
T2 sequence: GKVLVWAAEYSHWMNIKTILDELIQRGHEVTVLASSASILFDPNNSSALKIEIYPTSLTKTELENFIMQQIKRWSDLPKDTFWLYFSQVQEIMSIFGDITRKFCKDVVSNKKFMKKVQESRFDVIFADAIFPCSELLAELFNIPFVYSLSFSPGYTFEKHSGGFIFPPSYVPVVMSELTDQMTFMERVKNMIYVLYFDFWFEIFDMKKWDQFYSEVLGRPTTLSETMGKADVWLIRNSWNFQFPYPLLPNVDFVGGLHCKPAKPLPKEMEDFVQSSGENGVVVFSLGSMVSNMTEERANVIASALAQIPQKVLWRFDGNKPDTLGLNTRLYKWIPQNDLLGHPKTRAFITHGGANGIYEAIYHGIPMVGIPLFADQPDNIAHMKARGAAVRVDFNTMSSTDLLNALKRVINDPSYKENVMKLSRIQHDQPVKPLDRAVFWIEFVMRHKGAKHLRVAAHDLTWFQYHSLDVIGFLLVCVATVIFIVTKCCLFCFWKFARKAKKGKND
Put plainly: co-IP; normal and morphine tolerance-like (1 uM morphine, 48 h) HCT-116 cells; which protein was precipitated not given.

As to SUZ12 (from UniProt Q15022 1-739), in assay [1], the binding entry was “binds”.

B1: brain-derived neurotrophic factor (protein, UniProt P23560 19-247)
chain: T1 sequence
Regarding B1, the binding entry in assay [2] is “binds”.
